Record: PubChem BioAssay AID1259308 (NCATS, 2017)
This is one part, drawn at random, of about 59,000 reagents. Of all reagents, about 1,510 (2.6%) got an active call. 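Calls use total luciferase alone and ignore viability, so some active siRNAs may act by altering cell number.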 Unmarked entries are inactive. Reagents against one gene are numbered here. Further read-outs or replicates are left out here. Reagent sequences are not shown.

Assay: 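Genes whose loss raises luciferase production in HEK293 cells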 (primary screen)
Cells: human HEK293 embryonic kidney cells stably expressing firefly luciferase (HEK-CMV-Luc2-Hygro)
Reagent: single siRNA against human genes, 0.8 pmol siRNA per well
Time to read-out: 72 h
Detection: 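Reporter luminescence and viable-cell signal on separate replicate plates, given as percent of non-targeting control and median/MAD z-scores, plus per-cell luciferase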
Reading the numbers: total luciferase, z-score: higher = more reporter protein produced
Call rule: 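An siRNA counts as active if its total luciferase robust z-score exceeds 3; genes with two or more such siRNAs out of three were retested with fresh siRNAs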
Calls: active = raised luciferase; inactive = no rise

| Target gene | reagent no. | total luciferase, z-score |
| --- | --- | --- |
| CHST3 | 1 | 0.307 |
| CHST3 | 2 | -0.25 |
| CHST3 | 3 | -0.409 |
| FNTB | 1 | 0.535 |
| FNTB | 2 | -0.00329 |
| FNTB | 3 | 0.64 |
| LTA4H | 1 | 1.17 |
| LTA4H | 2 | -0.159 |
| LTA4H | 3 | 0.477 |
| ZC3HAV1 | 1 | -1.63 |
| ZC3HAV1 | 2 | 1.28 |
| ZC3HAV1 | 3 | -0.64 |
| CHSY1 | 1 | 2.29 |
| CHSY1 | 2 | -1.19 |
| CHSY1 | 3 | 2.44 |
| MLX | 1 | 0.431 |
| MLX | 2 | 0.0684 |
| MLX | 3 | -0.523 |
| REEP5 | 1 | 0.68 |
| REEP5 | 2 | -1.45 |
| REEP5 | 3 | 0.135 |
| GLOD5 | 1 | 1.29 |
| GLOD5 | 2 | -0.336 |
| GLOD5 | 3 | -1.75 |
| GLUL | 1 | -0.0443 |
| GLUL | 2 | 0.369 |
| GLUL | 3 | 4.03 (active) |
| ZNF182 | 1 | 0.341 |
| ZNF182 | 2 | 0.148 |
| ZNF182 | 3 | -0.502 |
| LINC02872 | 1 | -0.335 |
| LINC02872 | 2 | -0.629 |
| LINC02872 | 3 | -0.59 |
| PADI3 | 1 | -0.36 |
| PADI3 | 2 | -0.611 |
| PADI3 | 3 | 1.05 |
| NAP1L2 | 1 | 0.398 |
| NAP1L2 | 2 | -0.684 |
| NAP1L2 | 3 | -0.0212 |
| XPO6 | 1 | 0.204 |
| XPO6 | 2 | -0.351 |
| XPO6 | 3 | -1.32 |
| GPR135 | 1 | 2.11 |
| GPR135 | 2 | 0.349 |
| GPR135 | 3 | -0.522 |
| NCOA5 | 1 | 0.637 |
| NCOA5 | 2 | 0.199 |
| NCOA5 | 3 | 1.08 |
| PTGES3P1 | 1 | -0.877 |
| PTGES3P1 | 2 | -0.24 |
| PTGES3P1 | 3 | -0.168 |
| BROX | 1 | -1.93 |
| BROX | 2 | -0.759 |
| BROX | 3 | -0.223 |
| ELF3 | 1 | 1.09 |
| ELF3 | 2 | 0.747 |
| ELF3 | 3 | 4.11 (active) |
| EFEMP2 | 1 | -1.38 |
| EFEMP2 | 2 | -0.881 |
| EFEMP2 | 3 | -1.72 |
| ZDHHC7 | 1 | 1.53 |
| ZDHHC7 | 2 | 0.049 |
| ZDHHC7 | 3 | -1.76 |
| A4GNT | 1 | -1.24 |
| A4GNT | 2 | -0.748 |
| A4GNT | 3 | -0.642 |
| GALT | 1 | 0.734 |
| GALT | 2 | 1.74 |
| GALT | 3 | -0.596 |
| IGSF11 | 1 | -0.00193 |
| IGSF11 | 2 | -0.00462 |
| IGSF11 | 3 | 1.38 |
| POFUT1 | 1 | 2.51 |
| POFUT1 | 2 | -0.37 |
| POFUT1 | 3 | -1.39 |

Called active (from the list above):
| Target gene | reagent no. | total luciferase, z-score |
| --- | --- | --- |
| GLUL | 3 | 4.03 (active) |
| ELF3 | 3 | 4.11 (active) |
